PubChem BioAssay AID1224828, NIAID – 2016
Purpose: 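Regulators linking TLR4 signalling to p65 nuclear translocation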 (primary screen). Cell system: mouse RAW264.7 G9 macrophage reporter cells (GFP-p65, Tnf promoter-mCherry). Knock-down reagent: siRNA pool against mouse genes, 100 nM. Time to read-out: 2 days siRNA transfection, then 40 min LPS before fixation. Challenge: LPS (Salmonella minnesota R595) at 10 ng/ml. Measurement: 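Imaged p65 nuclear translocation ratio, normalised to the plate median, converted to robust z-scores and averaged across two replicates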. Direction: p65 translocation robust z-score: higher = more nuclear NF-kappaB p65 after LPS than the plate median; nuclear/cytoplasmic p65 ratio: higher = more nuclear NF-kappaB p65. Active means: 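Active if robust z is above 3.3 (negative regulators) or below -1.56, the Tlr4 control median (positive regulators); activity score 50 or more; control wells not called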. Meaning of the calls: active = hit (p65 shift raised or lowered); inactive = no clear change.
In all, the deposit lists about 17,000 reagents; shown is an unselected part. Over the whole deposit, 762 (4.5%) got an active call. 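Active calls include both raised and lowered p65 entry, mostly lowered; wells with fewer than 50 cells lack a z-score.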 Raw values vary from plate to plate and are shown uncorrected. Reagents against one gene are numbered here. No sequences are given here.

target | reagent | p65 translocation robust z-score | nuclear/cytoplasmic p65 ratio, rep 1 | nuclear/cytoplasmic p65 ratio, rep 2 | low cell count flag | call
Ccnl1 | 1 | 0.02 | 1.23 | 1.38 | enough cells to score | inactive
Gabrg3 | 1 | 1.78 | 1.69 | 1.58 | enough cells to score | inactive
Gabrg3 | 2 | -0.27 | 1.55 | 1.49 | enough cells to score | inactive
Phtf2 | 1 | 0.9 | 1.63 | 1.52 | enough cells to score | inactive
Izumo4 | 1 | – | 0 | 1.73 | fewer than 50 cells per well; well left out of scoring | inactive
Or8b46 | 1 | 1.58 | 1.72 | 1.36 | enough cells to score | inactive
Or5b122 | 1 | 0.91 | 1.82 | 1.48 | enough cells to score | inactive
Gin1 | 1 | -1.45 | 1.09 | 1.21 | enough cells to score | inactive
Prkab1 | 1 | 0.86 | 1.55 | 1.52 | enough cells to score | inactive
Numb | 1 | 1.11 | 1.66 | 1.5 | enough cells to score | inactive
Csk | 1 | 1.17 | 1.55 | 1.53 | enough cells to score | inactive
Slc10a1 | 1 | -0.21 | 1.48 | 1.56 | enough cells to score | inactive
Or13c7 | 1 | 1.56 | 1.9 | 1.58 | enough cells to score | inactive
Ppp2r5e | 1 | -1.38 | 1.32 | 1.22 | enough cells to score | inactive
Efr3a | 1 | -1.37 | 1.16 | 1.55 | enough cells to score | inactive
Efr3a | 2 | -0.24 | 1.6 | 1.68 | enough cells to score | inactive
Fancg | 1 | -1.29 | 1.24 | 1.2 | enough cells to score | inactive
Tenm2 | 1 | -1.84 | 1.44 | 1.26 | enough cells to score | active
Gramd1b | 1 | – | 1.15 | 1.06 | fewer than 50 cells per well; well left out of scoring | inactive
Nxf7 | 1 | 0.8 | 1.82 | 1.66 | enough cells to score | inactive

Look-ups from the list:
Under “low cell count flag”, Prkab1 has enough cells to score
Entry of Slc10a1 under “p65 translocation robust z-score”: -0.21

The list goes on:
target | reagent | p65 translocation robust z-score | nuclear/cytoplasmic p65 ratio, rep 1 | nuclear/cytoplasmic p65 ratio, rep 2 | low cell count flag | call
Nsl1 | 1 | – | 1.31 | 0 | fewer than 50 cells per well; well left out of scoring | inactive
Cdc42ep3 | 1 | 0.75 | 1.59 | 1.46 | enough cells to score | inactive
Or5i1 | 1 | 1.01 | 1.58 | 1.81 | enough cells to score | inactive
Cd74 | 1 | -0.32 | 1.34 | 1.38 | enough cells to score | inactive
Wdr35 | 1 | -0.15 | 1.3 | 1.31 | enough cells to score | inactive
Or7g21 | 1 | – | 1.33 | 1.16 | fewer than 50 cells per well; well left out of scoring | inactive
Or2w1 | 1 | 2.06 | 2.01 | 1.67 | enough cells to score | inactive
Cfc1 | 1 | -0.3 | 1.37 | 1.39 | enough cells to score | inactive
Adgrb1 | 1 | 0.54 | 1.58 | 1.66 | enough cells to score | inactive
Cerk | 1 | 1.38 | 2.02 | 1.47 | enough cells to score | inactive
Cd96 | 1 | 0.2 | 1.39 | 1.47 | enough cells to score | inactive
Socs7 | 1 | -0.48 | 1.46 | 1.5 | enough cells to score | inactive
Bach1 | 1 | -0.07 | 1.62 | 1.59 | enough cells to score | inactive
Ankrd24 | 1 | -0.14 | 1.47 | 1.85 | enough cells to score | inactive
Tmprss11b | 1 | – | 1.68 | 1.65 | fewer than 50 cells per well; well left out of scoring | inactive
Or10ag56 | 1 | 0.66 | 1.94 | 1.52 | enough cells to score | inactive
Wdr55 | 1 | -1.23 | 1.22 | 1.32 | enough cells to score | inactive
Klk1b8 | 1 | -1.94 | 1.22 | 1.22 | enough cells to score | active
Irak3 | 1 | -0.98 | 1.56 | 1.23 | enough cells to score | inactive
C030006K11Rik | 1 | -0.21 | 1.48 | 1.41 | enough cells to score | inactive
